These are yes or no findings as the source states them, for the method shown. A result given as binding can be weak or reduced; the word gives no strength. Tags and fused reporters may be left off the sequences shown.
B1: V5-tagged IGFBP4 (IGFBP-4-V5) (protein, mouse, UniProt P47879 22-254, looked up, not shown: small tags and cut ends)
chain: DEAIHCPPCSEEKLARCRPPVGCEELVREPGCGCCATCALGLGMPCGVYTPRCGSGMRCYPPRGVEKPLRTLMHGQGVCTELSEIEAIQESLQTSDKDESEHPNNSFNPCSAHDHRCLQKHMAKIRDRSKMKIVGTPREEPRPVPQGSCQSELHRALERLAASQSRTHEDLFIIPIPNCDRNGNFHPKQCHPALDGQRGKCWCVDRKTGVKLPGGLEPKGELDCHQLADSFQE
B2: IGFBP-1 (V5-tagged) (protein, mouse, UniProt P47876 26-272, looked up, not shown: small tags and cut ends)
chain: APQPWHCAPCTAERLGLCPPVPASCPEISRPAGCGCCPTCALPMGAACGVATARCAQGLSCRALPGEPRPLHALTRGQGACVPEPAAPATSTLFSSQHEEAKAAVVSADELSESPEMTEEQLLDSFHLMAPSREDQPILWNAISTYSSMRAREIADLKKWKEPCQRELYKVLERLAAAQQKAGDEIYKFYLPNCNKNGFYHSKQCETSLDGEAGLCWCVYPWSGKKIPGSLETRGDPNCHQYFNVHN
B3: IGFBP-2 (V5-tagged) (protein, mouse, UniProt P47877 35-305, looked up, not shown: small tags and cut ends)
chain: EVLFRCPPCTPERLAACGPPPDAPCAELVREPGCGCCSVCARQEGEACGVYIPRCAQTLRCYPNPGSELPLKALVTGAGTCEKRRVGTTPQQVADSDDDHSEGGLVENHVDGTMNMLGGGSSAGRKPLKSGMKELAVFREKVNEQHRQMGKGAKHLSLEEPKKLRPPPARTPCQQELDQVLERISTMRLPDDRGPLEHLYSLHIPNCDKHGRYNLKQCKMSLNGQRGECWCVNPNTGKPIQGAPTIRGDPECHLFYNEQQETGGAHAQSVQ
B4: IGFBP-6 (V5-tagged) (protein, mouse, UniProt P47880 26-238, looked up, not shown: small tags and cut ends)
chain: ALAGCPGCGAGMQTGCRGGCVEEEDAGSPADGCTEAGGCLRREGQPCGVYSPKCAPGLQCQPRENEEAPLRALLIGQGRCQRARGPSEETTKESKPQGGASRSRDTNHRDRQKNPRTSAAPIRPNPVQDSEMGPCRRHLDSVLQQLQTEVFRGGARGLYVPNCDLRGFYRKQQCRSSQGNRRGPCWCVDPMGQPLPVSPDGQGSTQCSARSSG

molecular target: Myc-tagged Frz8CRD (Frz8CRD-Myc), cysteine-rich domain of Frizzled 8 (Mus musculus (Mouse)); experiment: IP/western, Frz8CRD-Myc with IGFBP-4-V5

| Binder | binding |
| --- | --- |
| B1 | binds |

molecular target: Myc-tagged Frz8CRD (Frz8CRD-Myc), cysteine-rich domain of Frizzled 8 (Mus musculus (Mouse)); experiment: IP/western

| Binder | binding |
| --- | --- |
| B2 | binds |
| B3 | binds |
| B1 | binds |
| B4 | binds |

molecular target: Myc-tagged Frz8CRD (Frz8CRD-Myc), cysteine-rich domain of Frizzled 8 (Mus musculus (Mouse)); experiment: IP/western, Frz8-Myc with V5-tagged IGFBP

| Binder | binding |
| --- | --- |
| B2 | binds |
| B3 | binds |
| B1 | binds |
| B4 | binds |

Source: patent publication US20110243899A1 (NATIONAL UNIVERSITY CORPORATION CHIBA UNIVERSITY, published 2011)
